{"source": "PubChem BioAssay AID1224830 (NIAID, 2016)", "screen": "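Regulators of TLR4 signalling towards TNF-alpha in macrophage-like cells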 (primary screen)", "cell system": "human THP-1 monocytic leukaemia cells, TNF dual-luciferase reporter clone, PMA-differentiated to macrophage-like cells", "reagent": "siRNA pool against human genes, 50 nM", "time to read-out": "LPS for 4 h, given about 3 days after siRNA transfection", "challenge": "bacterial LPS (TLR4 ligand), 10 ng/ml", "measurement": "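TNF firefly reporter luminescence divided by renilla, normalised to the plate median, then turned into a robust z-score for each replicate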", "direction": "TNF reporter robust z-score: higher = stronger TNF reporter response to LPS", "call rule": "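Each well counts as active if its z-score is over 2.8 or under -1.5; controls are left without a call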", "note": "Here is an unselected part of about 18,000 deposited reagents. Over the whole deposit, about 2,900 (16%) were called active. 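Calls are made per well; low scores hint the gene aids the LPS response, high scores that it dampens it.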 Repeated entries: four replicate wells of each siRNA pool."}
{"gene symbol":"CREBRF (CREB3 regulatory factor)","TNF reporter robust z-score":0.32,"activity call":"inactive"}
{"gene symbol":"CREBRF (CREB3 regulatory factor)","TNF reporter robust z-score":0.79,"activity call":"inactive"}
{"gene symbol":"CREBRF (CREB3 regulatory factor)","TNF reporter robust z-score":-0.16,"activity call":"inactive"}
{"gene symbol":"CREBRF (CREB3 regulatory factor)","TNF reporter robust z-score":1.1,"activity call":"inactive"}
{"gene symbol":"SNED1 (sushi, nidogen and EGF like domains 1)","TNF reporter robust z-score":-0.43,"activity call":"inactive"}
{"gene symbol":"SNED1 (sushi, nidogen and EGF like domains 1)","TNF reporter robust z-score":-0.67,"activity call":"inactive"}
{"gene symbol":"SNED1 (sushi, nidogen and EGF like domains 1)","TNF reporter robust z-score":0.95,"activity call":"inactive"}
{"gene symbol":"SNED1 (sushi, nidogen and EGF like domains 1)","TNF reporter robust z-score":0.68,"activity call":"inactive"}
{"gene symbol":"CADM2 (cell adhesion molecule 2)","TNF reporter robust z-score":-0.43,"activity call":"inactive"}
{"gene symbol":"CADM2 (cell adhesion molecule 2)","TNF reporter robust z-score":0.88,"activity call":"inactive"}
{"gene symbol":"CADM2 (cell adhesion molecule 2)","TNF reporter robust z-score":-0.42,"activity call":"inactive"}
{"gene symbol":"CADM2 (cell adhesion molecule 2)","TNF reporter robust z-score":-1.08,"activity call":"inactive"}
{"gene symbol":"NUTM1 (NUT midline carcinoma family member 1)","TNF reporter robust z-score":-0.36,"activity call":"inactive"}
{"gene symbol":"NUTM1 (NUT midline carcinoma family member 1)","TNF reporter robust z-score":0.66,"activity call":"inactive"}
{"gene symbol":"NUTM1 (NUT midline carcinoma family member 1)","TNF reporter robust z-score":0.31,"activity call":"inactive"}
{"gene symbol":"NUTM1 (NUT midline carcinoma family member 1)","TNF reporter robust z-score":1.12,"activity call":"inactive"}
{"gene symbol":"METTL25 (methyltransferase like 25)","TNF reporter robust z-score":-1.12,"activity call":"inactive"}
{"gene symbol":"METTL25 (methyltransferase like 25)","TNF reporter robust z-score":-0.95,"activity call":"inactive"}
{"gene symbol":"METTL25 (methyltransferase like 25)","TNF reporter robust z-score":-1.15,"activity call":"inactive"}
{"gene symbol":"METTL25 (methyltransferase like 25)","TNF reporter robust z-score":-0.83,"activity call":"inactive"}

3 entries from above, sorted by “TNF reporter robust z-score”, high to low.
{"gene symbol":"CREBRF (CREB3 regulatory factor)","TNF reporter robust z-score":1.1,"activity call":"inactive"}
{"gene symbol":"SNED1 (sushi, nidogen and EGF like domains 1)","TNF reporter robust z-score":-0.43,"activity call":"inactive"}
{"gene symbol":"SNED1 (sushi, nidogen and EGF like domains 1)","TNF reporter robust z-score":-0.67,"activity call":"inactive"}
